# From the supplement of paper PMC5407854, “Inhibitor of ppGalNAc-T3-mediated O-glycosylation blocks cancer cell invasiveness and lowers FGF23 levels” (eLife, 2017)
# Over roughly 1,700 compounds, “T2 sensor activation Q score (MG/GFP ratio z-score vs DMSO controls)” has its median near 0.3; the highest 2% begin near 1.9. The list shows a part of the results.
# Tested on: ppGalNAc-T2 sensor
# Assay: T2 sensor activation Q score (MG/GFP ratio z-score vs DMSO controls) (SD units); higher = more sensor activation (inhibition of ppGalNAc-T2 glycosylation)
# Conditions: HEK293 sensor cells; 10 µM; 6 h
# Experimental: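 Cells were treated with compound at 10 uM for 6 h, then MG/GFP ratio was read by flow cytometry (10,000 cells per well, duplicate wells). Q = (R - R_neg)/SD_neg relative to DMSO vehicle controls; the signal rises when the glycosyltransferase is inhibited.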
row,Structure (SMILES),T2 sensor activation Q score
1,Cc1ccc(C)c(C(=O)CCC(=O)O)c1,-0.7
2,O=C(Nc1ccc(Nc2ccncc2)cc1)c1ccc(Nc2ccnc3ccc([N+](=O)[O-])cc23)cc1,-0.755
3,CSc1nc(=S)cc(C)[nH]1,0.1
4,CCCOc1ccc(-c2nc(-c3ccc([N+](=O)[O-])cc3)cs2)cc1,0.85
5,Cc1[nH]c(=S)[nH]c(=O)c1CCC1OCCO1,1.45
6,CC(C)(C)N1CC(OC(N)=O)C1,0.7
7,NC(=O)Oc1cccc(OC(N)=O)c1,0.85
8,Cc1ccc(NCCN(C)C)c2c(=O)c3cc(O)ccc3sc12,-2.35
9,c1ccc2c(c1)[nH]c1c3ccccc3sc21,0
10,COc1c(NC(C)=O)c2ccccc2c2ccccc12,0.45
11,COc1ccccc1NC(=O)Oc1cccc(OC(=O)c2ccccc2)c1,0.2
12,Nc1c(Cl)cc(S(N)(=O)=O)cc1S(N)(=O)=O,1.1
13,Cc1ccc(N=Nc2c(O)c3ccccc3[nH]c2=O)c(S(=O)(=O)N(C)C)c1,0.3
14,CCN(CC)CCN1C(=O)c2cccc3cc(N)cc(c23)C1=O,0.75
15,Cc1cccc2c1c1ccc3c(c1n2C)C(=O)C=CC3=O,-0.15
16,O=c1[nH]cc(I)cc1I,-0.4
17,Cc1cc(NC(=O)c2ccccc2)c(Cl)cc1N,-1.4
18,O=C(c1ccc(O)cc1)c1ccc(C(=O)c2ccc(O)cc2)cc1,-0.25
19,c1ccc(-c2nn(-c3ccccc3)[n+](-c3ccccc3)n2)cc1,0.4
20,COc1cc(Cl)c(CC(=O)c2c[nH]c3ccccc23)cc1OC,1
21,Nc1ccc(C(=O)Nc2cccc(N)c2)cc1,-0.5

row,Structure (SMILES),T2 sensor activation Q score
1,O=C(COc1ccc([N+](=O)[O-])cc1Cl)N1CCOCC1,-0.05
2,C#CC(c1ccccc1)(c1ccccc1)n1ccnc1,1.05
3,Nc1ncn([C@@H]2O[C@H](CO)[C@@H](O)[C@H]2O)c(=O)n1,-0.15
4,Clc1ccc(-c2nc(-c3cc4cc(Cl)ccc4o3)cs2)cc1,0.65
5,CC1CC(C)(C)C2=NCCN21 (stereo unspecified),1.3
6,O=C1CCC(c2ccccc2)(c2ccccc2)CC1,-0.25
7,CC1=NN(c2ccccc2)C(=O)C1N=Nc1ccc(S(N)(=O)=O)cc1 (stereo unspecified),0.6
8,O=c1cc(N=Nc2ccc(Cl)cc2)[nH]c(=O)[nH]1,1.6
9,CCCCC[C@H](O)/C=C/[C@@H]1[C@@H](C/C=C\CCCC(=O)O)[C@@H](O)C[C@H]1O,0.6
10,COc1cccc(NC(=S)Nc2ccc(O)cc2)c1,-1.2
11,Cc1ccn2c(C(C)O)nnc2c1 (stereo unspecified),0.8
12,O=C(O)CCC(=O)c1ccc2ccc3cccc4ccc1c2c34,1.35
13,Nc1ccc(C(=O)Nc2ccc(Nc3ccncc3)cc2)cc1,1.85
14,c1ccc(-n2ncc3cccnc32)cc1,-0.25
15,O=[N+]([O-])c1c(N2CCN(CCO)CC2)nc2ccccn12,0.7
16,CCC(C)NC(=O)CC(C)C (stereo unspecified),1.8
17,COc1ccc(-c2cc3ccccc3[nH]2)cc1,0.9
18,O=c1[nH]c(=S)c2ncn(-c3ccccc3)c2[nH]1,-1.3
19,CCCN(CCC)CC(=O)N1CC(=O)Nc2ccccc21,-1.75
20,Cc1ccnc(NC(c2ccccc2)c2ccc3cccnc3c2O)c1 (stereo unspecified),-1.9
21,Nc1ccnn1-c1ccccc1,-0.15

# A portion from the list above, as a working copy:
row,Structure (SMILES),T2 sensor activation Q score
5,CC1CC(C)(C)C2=NCCN21 (stereo unspecified),1.3
6,O=C1CCC(c2ccccc2)(c2ccccc2)CC1,-0.25
7,CC1=NN(c2ccccc2)C(=O)C1N=Nc1ccc(S(N)(=O)=O)cc1 (stereo unspecified),0.6
8,O=c1cc(N=Nc2ccc(Cl)cc2)[nH]c(=O)[nH]1,1.6
9,CCCCC[C@H](O)/C=C/[C@@H]1[C@@H](C/C=C\CCCC(=O)O)[C@@H](O)C[C@H]1O,0.6
10,COc1cccc(NC(=S)Nc2ccc(O)cc2)c1,-1.2
11,Cc1ccn2c(C(C)O)nnc2c1 (stereo unspecified),0.8
12,O=C(O)CCC(=O)c1ccc2ccc3cccc4ccc1c2c34,1.35
13,Nc1ccc(C(=O)Nc2ccc(Nc3ccncc3)cc2)cc1,1.85
14,c1ccc(-n2ncc3cccnc32)cc1,-0.25
15,O=[N+]([O-])c1c(N2CCN(CCO)CC2)nc2ccccn12,0.7

# (list continues)

row,Structure (SMILES),T2 sensor activation Q score
1,C[C@@H]1O[C@@H](Oc2c(-c3cc(O)c(O)c(O)c3)oc3cc(O)cc(O)c3c2=O)[C@H](O)[C@H](O)[C@H]1O,1.8
2,O=C1C(=Nc2cccc(Cl)c2)CC(c2ccc(Cl)cc2)N1c1cccc(Cl)c1 (stereo unspecified),-0.2
3,Cc1ccc(C(=O)Nc2ccc(CN3CCN(C)CC3)c(C(F)(F)F)c2)cc1C#Cc1cnc2cccnn12,0.5
4,N#CCc1cnc2ccccc2n1,-0.35
5,O=C(Nc1cccnc1)c1cccc([N+](=O)[O-])c1,-0.2
6,O=C(O)/C=C\C(=O)Nc1ccc(-c2ccccc2)cc1,0.1
7,O=C(c1ccc(Cl)nc1)c1cccs1,0.8
8,c1ccc2[nH]c(-c3ccncc3)nc2c1,-1.1
9,O=c1ccc(Cl)n[nH]1,1.45
10,Cc1cc(C)n(C(N)=NC(=O)c2ccc([N+](=O)[O-])cc2)n1,0.9
11,Cc1ccc(-c2nc(-c3nccc4ccccc34)oc2-c2ccccc2)cc1,0.35
12,S=c1nc[nH]c2c1ncn2C1CCCC1,1.4
13,Cc1ccc([N+](=O)[O-])cc1NC(=O)Nc1ccc(S(N)(=O)=O)cc1,1.2
14,COc1cccc(OCC(O)CN2CCN(c3ccccc3)CC2)c1 (stereo unspecified),0.55
15,CCOC(=O)Cc1cc(=O)[nH]n(-c2ccccc2)c1=O,0.75
16,O=C(Nc1nc2ccccc2s1)Nc1ccc([N+](=O)[O-])cc1Cl,0.35
17,Cc1ccc(C#CC(C)(O)C(C)(C)C)cn1 (stereo unspecified),-0.05
18,COc1cc2nccc(Oc3ccc(NC(=O)C4(C(=O)Nc5ccc(F)cc5)CC4)cc3)c2cc1OC,0.85
19,COc1cc2c(c(OC)c1O)C(=O)CO2,0.55
